The other results are listed elsewhere or left out. Shown are side measurements of this screen, not its main read-out; they come without a call. Compounds called inactive in the main read-out are mostly missing here. Potencies come from curve fits of mixed quality, noted in brackets.
Assay: qHTS Assay for Lipid Storage Modulators in Drosophila S3 Cells;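 for cell number change: cells counted by Cell Tracker Red CMTPX staining in the red channel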
Conditions: BODIPY lipid droplet fluorescence, 18-24 h; for cell number change: measured here: cell count max response, cells fed with added oleic acid
In short: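 Drosophila S3 cells got compounds at several concentrations plus oleic acid (400 uM solution). Laser-scanning cytometry with 488 nm excitation read lipid droplets at 500-530 nm and cells at 575-640 nm. Percent activity was relative to 20 uM Triacsin C.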

[1] = measured here: lipid fluorescence (Fed channel) AC50, cells fed with added oleic acid
[2] = measured here: cell number channel AC50, cells fed with added oleic acid

| Compound | cell number change [%] | AC50 [1] | AC50 [2] |
| --- | --- | --- | --- |
| CCN(C(=O)COc1ccccc1)C1CCCCC1 | 8.47 | 0.103 µM [rising, full curve, poor fit] |  |
| CC(C)(C)OC(=O)N1CCC(CNC(=O)c2ccc(F)cc2F)CC1 | -20.9 | 18.4 µM [falling, partial curve, poor fit] |  |
| COc1cc(NC(=O)c2cc3ccccc3o2)ccc1NC(=O)c1ccco1 |  | 0.411 µM [falling, full curve] |  |
| CCOC(=O)Cc1csc(NC(=O)C2CCCCC2C(=O)O)n1 (stereo not drawn) | 11.4 | 3.26 µM [rising, single point] |  |
| Cc1cc(C)n(C(=O)c2ccc(NC(=O)CC(C)C)cc2)n1 | -2.79 |  |  |
| CCOC(=O)Nc1ccc(Oc2ccccc2)cc1 |  |  | 0.92 µM [rising, partial curve] |
| O=C(CSc1ccc2ccccc2n1)c1ccc2c(c1)OCO2 |  | 1.46 µM [rising, full curve] | 0.517 µM [rising, full curve] |
| O=C(O)CSc1nnnn1-c1ccc2c(c1)OCCO2 | -94.7 |  |  |
| O=C(NC(=S)N1CCCC1)c1ccccc1Cl | 15.7 |  | 3.66 µM [rising, partial curve, poor fit] |
| Cc1ccc(-c2ccc(/C=N/N3C(=O)C4C5C=CC(C6CC56)C4C3=O)o2)c([N+](=O)[O-])c1 (stereo not drawn) | 68.2 |  | 5.17 µM [rising, full curve] |
| O=C(O)CN1C(=O)C(=O)N(Cc2ccc(C(F)(F)F)cc2)C1=O |  | 0.651 µM [rising, full curve, poor fit] |  |
| O=C(COc1ccc(Br)cc1)OCc1nnc(-c2ccccc2)o1 | 3.18 | 0.00461 µM [falling, full curve, poor fit] |  |
| CSCCC(NC=C1C(=O)OC(C)(C)OC1=O)C(=O)O (stereo not drawn) | 17.2 | 29.1 µM [rising, single point] | 0.82 µM [falling, single point] |
| CCN1CCN(CCCN(Cc2ccco2)C(=S)Nc2cc(Cl)ccc2C)CC1 | 85 |  |  |
| O=C(NCC1OCCCN1S(=O)(=O)c1cc(F)ccc1F)C(=O)NC1CCCCCC1 (stereo not drawn) |  | 2.06 µM [falling, partial curve] |  |
| O=C(Cn1ccc(NC(=O)OCc2ccccc2)nc1=O)NCC1CCCO1 (stereo not drawn) | -4.41 | 1.16 µM [rising, single point] |  |
| NNc1nc(-c2ccccc2Cl)nc2ccccc12 | -10.6 | 18.4 µM [falling, single point] |  |
| Cc1n[nH]c(=O)nc1NCCN(C)C | 7.41 |  |  |
| O=C(NCc1nnc2c(C(F)(F)F)cc(Cl)cn12)c1ccc2c(c1)OCO2 | 10.7 | 0.58 µM [falling, single point] |  |
| COc1ccccc1-n1cnnc1SCC(=O)Nc1cc(C(C)(C)C)nn1-c1ccccc1 | -28.5 |  |  |

| Compound | cell number change [%] | AC50 [1] | AC50 [2] |
| --- | --- | --- | --- |
| CC1(C)Cc2ccccc2/C(=C/C(=O)c2ccccc2)N1 | -27.2 |  |  |
| CC[C@@]12C(=O)N(c3ccc(C)cc3)C(=O)N1[C@H](c1ccc(Br)cc1)[C@@H]1C(=O)N(C(C)(C)C)C(=O)[C@@H]12 | 28.2 | 0.58 µM [rising, single point] |  |
| CC(C)(O)c1[nH]c2cc(F)ccc2c1C(C)(C)O | 1.94 | 29.1 µM [rising, single point] |  |
| CCn1c(SCC(=O)Nc2ccc3c(c2)OCCO3)nnc1-c1ccncc1 | 6.09 |  |  |
| CCS(=O)(=O)Nc1cccc(-c2cc(-c3ccccc3)c3cc(C)ccc3n2)c1 | -43.1 | 13 µM [falling, partial curve, poor fit] | 11.6 µM [falling, partial curve, poor fit] |
| Cc1cc(C)c(C#N)c(SCc2nc3ccccc3c(=O)[nH]2)n1 | 18.9 | 0.0366 µM [rising, full curve, poor fit] |  |
| Cc1nonc1C(=O)N/N=C/c1cccc(O)c1 | -25.2 | 0.0731 µM [falling, full curve, poor fit] | 2.06 µM [falling, full curve, poor fit] |
| O=S(=O)(NCC1CCCO1)c1ccc(S(=O)(=O)N2CCc3ccccc3C2)cc1 (stereo not drawn) | 34.5 |  | 4.11 µM [rising, partial curve] |
| CCC(C)N(C(=O)COC(=O)/C=C/c1ccc(O)c(OC)c1)C1CCS(=O)(=O)C1 (stereo not drawn) | 5.26 |  |  |
| COc1ccc(C2(O)CN(c3ccccc3)C3=[N+]2CCS3)cc1OC (stereo not drawn) |  | 0.411 µM [rising, partial curve, poor fit] |  |
| COCCn1c(N)c(N(Cc2ccccc2)C(=O)CSCC(=O)Nc2ccc(OC)cc2)c(=O)[nH]c1=O | -19.2 | 0.651 µM [falling, single point] |  |
| COc1ccccc1N(CC(=O)N/N=C(\C)c1cccc(Br)c1)S(C)(=O)=O |  | 1.03 µM [rising, full curve] | 0.92 µM [rising, partial curve] |
| O=C(O)C1CC(=O)N(CCc2ccc(F)cc2)C1 (stereo not drawn) | 13.5 | 0.231 µM [rising, full curve, poor fit] |  |
| COc1cccc(C(=O)N2CCN(Cc3ccc4c(c3)OCO4)CC2)c1OC | 0.517 | 6.51 µM [falling, single point] |  |
| Cc1cc(C)c(CN2CCC(n3nccc3NC(=O)c3ccccc3Cl)CC2)cc1C | 42.7 | 8.2 µM [rising, partial curve, poor fit] | 29.1 µM [rising, single point] |
| COc1ccc(-c2cnn(C3CCS(=O)(=O)C3)c2N)cc1 (stereo not drawn) | 5.59 | 2.06 µM [rising, partial curve] |  |
| Cc1ccnc(Sc2ncccc2[N+](=O)[O-])n1 |  | 25.9 µM [falling, partial curve] |  |
| COc1ccc(C(=O)Oc2ccc(/C=N/NC(=O)Cc3ccc([N+](=O)[O-])cc3)cc2)cc1 | 41 | 32.6 µM [rising, single point] | 0.231 µM [rising, full curve] |
| COc1cccc(/C=c2\s/c(=C\C(=O)C(C)(C)C)[nH]c2=O)c1 | -41.2 |  | 6.51 µM [falling, partial curve, poor fit] |
| COc1ccccc1C(=O)OCc1ccc2sc(C)nc2c1 | -1.73 | 0.355 µM [falling, full curve] | 1.12 µM [falling, partial curve, poor fit] |

Copied from the results shown (15 entries):

| Compound | cell number change [%] | AC50 [1] | AC50 [2] |
| --- | --- | --- | --- |
| O=C(Cn1ccc(NC(=O)OCc2ccccc2)nc1=O)NCC1CCCO1 (stereo not drawn) | -4.41 | 1.16 µM [rising, single point] |  |
| NNc1nc(-c2ccccc2Cl)nc2ccccc12 | -10.6 | 18.4 µM [falling, single point] |  |
| Cc1n[nH]c(=O)nc1NCCN(C)C | 7.41 |  |  |
| O=C(NCc1nnc2c(C(F)(F)F)cc(Cl)cn12)c1ccc2c(c1)OCO2 | 10.7 | 0.58 µM [falling, single point] |  |
| COc1ccccc1-n1cnnc1SCC(=O)Nc1cc(C(C)(C)C)nn1-c1ccccc1 | -28.5 |  |  |
| CC1(C)Cc2ccccc2/C(=C/C(=O)c2ccccc2)N1 | -27.2 |  |  |
| CC[C@@]12C(=O)N(c3ccc(C)cc3)C(=O)N1[C@H](c1ccc(Br)cc1)[C@@H]1C(=O)N(C(C)(C)C)C(=O)[C@@H]12 | 28.2 | 0.58 µM [rising, single point] |  |
| CC(C)(O)c1[nH]c2cc(F)ccc2c1C(C)(C)O | 1.94 | 29.1 µM [rising, single point] |  |
| CCn1c(SCC(=O)Nc2ccc3c(c2)OCCO3)nnc1-c1ccncc1 | 6.09 |  |  |
| CCS(=O)(=O)Nc1cccc(-c2cc(-c3ccccc3)c3cc(C)ccc3n2)c1 | -43.1 | 13 µM [falling, partial curve, poor fit] | 11.6 µM [falling, partial curve, poor fit] |
| Cc1cc(C)c(C#N)c(SCc2nc3ccccc3c(=O)[nH]2)n1 | 18.9 | 0.0366 µM [rising, full curve, poor fit] |  |
| Cc1nonc1C(=O)N/N=C/c1cccc(O)c1 | -25.2 | 0.0731 µM [falling, full curve, poor fit] | 2.06 µM [falling, full curve, poor fit] |
| O=S(=O)(NCC1CCCO1)c1ccc(S(=O)(=O)N2CCc3ccccc3C2)cc1 (stereo not drawn) | 34.5 |  | 4.11 µM [rising, partial curve] |
| CCC(C)N(C(=O)COC(=O)/C=C/c1ccc(O)c(OC)c1)C1CCS(=O)(=O)C1 (stereo not drawn) | 5.26 |  |  |
| COc1ccc(C2(O)CN(c3ccccc3)C3=[N+]2CCS3)cc1OC (stereo not drawn) |  | 0.411 µM [rising, partial curve, poor fit] |  |

More entries.

| Compound | cell number change [%] | AC50 [1] | AC50 [2] |
| --- | --- | --- | --- |
| CCOC(=O)CC(Nc1nc(N2CCOCC2)nc(N2CCOCC2)n1)c1ccccc1Cl (stereo not drawn) | -16.7 | 0.259 µM [falling, full curve, poor fit] |  |
| COc1ccc2cc(C(=O)Nc3ccc(O)cc3)sc(=O)c2c1OC | 33.2 | 4.61 µM [rising, partial curve] |  |
| COc1ccc(S(=O)(=O)N2CCOCC2)cc1NC(=O)c1cccc(-n2cccc2)c1 |  | 6.51 µM [rising, partial curve] |  |
| COCCN(C(=S)Nc1ccc(C)cc1)C(C)c1cccnc1 (stereo not drawn) |  |  | 3.26 µM [rising, single point] |
| CN(C)S(=O)(=O)c1ccc(S(=O)(=O)N(Cc2ccco2)Cc2ccccc2Cl)cc1 | -143 | 1.3 µM [falling, partial curve] | 25.9 µM [falling, partial curve] |
| Cc1cc(-c2ccccc2)n(-c2ccc(C(=O)N3CCN(c4ncccn4)CC3)cc2)n1 | 98.4 | 25.9 µM [rising, partial curve] | 0.461 µM [rising, partial curve, poor fit] |
| CSc1ccc(CN2CCC(n3nccc3NC(=O)CCCc3ccccc3)CC2)cc1 | -3.4 | 6.51 µM [rising, single point] |  |
| CC(C)(C)CC(=O)N1CCN(c2ccc(S(=O)(=O)N3CCOCC3)cc2[N+](=O)[O-])CC1 | -21 | 0.411 µM [rising, partial curve, poor fit] |  |
| O=C(c1ccc(Cl)c(S(=O)(=O)N2CCCCCC2)c1)N1CCCC(C(F)(F)F)C1 (stereo not drawn) |  | 6.51 µM [rising, partial curve] |  |
| O=C(CN(C(=O)CCC(=O)Nc1ccccn1)c1cccc(F)c1)NCc1ccc(F)cc1 | 8.97 |  |  |
| O=C(NC1CCN(S(=O)(=O)c2ccccc2F)CC1)c1ccco1 | 2.61 | 29.1 µM [falling, single point] |  |
| Cn1nccc1C(=O)N1CCN(S(=O)(=O)c2ccc(Br)s2)CC1 | 42.7 |  | 25.9 µM [rising, single point] |
| Nc1nc(N)nc(-c2ccccc2)n1 | -150 |  | 29.1 µM [falling, partial curve] |
| CCCCN(C(=O)c1cc2c(s1)CCCC2)c1c(N)n(CCC)c(=O)[nH]c1=O | 2.28 | 29.1 µM [rising, single point] |  |
| O=C(NCc1ccc2c(c1)OCO2)c1nn2cccnc2c1Cl |  | 0.731 µM [rising, partial curve, poor fit] | 0.206 µM [rising, full curve] |
| CCCCn1c(N)c(N(CCOC)C(=O)COC(=O)c2cc(CC)c(C)s2)c(=O)[nH]c1=O | -16.3 | 23.1 µM [falling, single point] |  |
| Cc1ccc2c(Cl)c(C(=O)NCCc3ccccc3)sc2c1 | 87.5 | 11.6 µM [rising, partial curve] | 6.51 µM [rising, partial curve, poor fit] |
| COc1ccc(NCc2ccsc2)cc1 | -22.7 | 29.1 µM [rising, single point] |  |
| O=S(=O)(NCCc1cn2ccccc2n1)c1cccs1 |  | 5.8 µM [falling, single point] |  |
